{"source": "patent US20230372307A1", "about": "“COMBINATION THERAPY USING BAX ACTIVATOR AGENT” (Albert Einstein College of Medicine, priority 2020, published 2023)"}
{"smiles": "O=C1/C(=N\\Nc2nccs2)C(c2ccccc2)=NN1c1nc(-c2ccccc2)cs1", "note": "[BTSA1]", "values": [{"measurement": "necropsy finding", "setting": "200 mg/kg BTSA1, 300 mg/kg BTSA1.2, oral gavage daily", "value": "die by kidney failure after 3 days of treatment"}, {"measurement": "white blood cells and neutrophils levels", "setting": "oral 200 mg/Kg daily, second day", "value": "increased white blood cells and neutrophils levels"}]}
